## Screening data, single-dose tests

From ChEMBL document CHEMBL3988442, “University of Dundee, Small-Polar-MMV Screening Library” (2021).

Each number is a percent effect as filed. How 0% and 100% were set is not recorded. Most values in the screen are low, and negative values occur. The compounds are a random part of those screened.

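Phenotypic screen: M. tuberculosis growth, glucose 7H9 medium, 3 days; the read-out is not stated. Tested at 500 µM. The record gives no direction; compounds that gave an IC50 in retests scored well above the rest, so higher reads as more growth inhibition. Of about 18,000 compounds tested this way, about 1,400 (7.9%) reached 50% or more in at least one test.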

| SMILES | effect |
|---|---|
| `CN(CCn1cnnc1)CC(=O)NCc1ccc(Cl)s1` | -7.728% |
| `CCC(CO)Nc1ncnc2c1c(Br)nn2C` (centres undefined) | 25.65% |
| `COc1cccc(F)c1C(C)NC(=O)c1nccn1C` (centres undefined) | 82.52% |
| `Cn1ccnc1CNC1CC1` | 3.794% |
| `CC(=O)c1ccc(NC(=O)c2ncoc2C)nc1` | 8.991% |
| `N#CCOC(=O)c1ccc2c(c1)OCCCO2` | 46.94% |
| `N#Cc1ccccn1` | 5.332% |
| `COc1c(F)ccc(F)c1C(=O)NCCC(O)C(C)C` (centres undefined) | -1.261% |
| `COc1cccc(OC)c1OCCN(C)C` | 20.93% |
| `CC(C)(C)OC(=O)c1ncccc1N` | 45.53% |
| `O=C(CCc1ccc2[nH]ccc2c1)N1CCOCC1` | 12.84% |
| `O=C(NC1CCCc2[nH]c(=O)ccc21)c1ccc(Cl)o1` (centres undefined) | 10.96% |
| `CN(C)C(=O)C(CO)c1ccccc1` (centres undefined) | 5.252% |
| `Cc1noc(C)c1CN(C)C(=O)c1ccc(=O)n(C)c1` | 8.241% |
| `N#CC1CN(C(=O)c2c(F)cccc2Br)CCO1` (centres undefined) | 28.62% |
| `CS(=O)(=O)N1CCC(NC(=O)c2cccc(Cl)c2)CC1` | 12.79% |
| `COc1ncccc1CN(C)C(=O)c1ccccc1F` | 59% |
| `O=C1CCC2(CNC(=O)c3ccco3)CCCC=C2N1` (centres undefined) | -10.24% |
| `Cn1c(CO)nc2ccc(Br)cc21` | 2.422% |
| `CCc1nnc(CN)o1` | 4.698% |
| `O=C(NCc1ccc(-n2cncn2)nc1)c1ccsc1` | 4.527% |
| `CC(C)(N)CNS(=O)(=O)c1cccc(Br)c1` | 22.73% |
| `Ic1nnnn1-c1ccccc1` | 107.2% |
| `Cc1cc(Cl)ccc1OCC(=O)N[C@@H]1CCOC[C@H]1O` | 22.17% |
| `COc1cccc(CN(C)C(=O)c2cccnc2)n1` | 19.69% |
| `Cc1cc(C(=O)Nc2cnn(C)c2)on1` | -3.874% |
| `COc1ccc(CC(=O)N2CCOCC2)cc1F` | 4.563% |
| `COCCCNCc1cccc(OC)c1` | 13.13% |
| `Cc1ccc(C(=O)NCCCn2ccnc2)s1` | 10.68% |
| `NCc1ccccc1CN1CCC(O)CC1` | -11.64% |
| `COc1ccccc1OCC(C)NS(C)(=O)=O` (centres undefined) | 16.67% |
| `NCC(C(=O)N1CCS(=O)(=O)CC1)c1ccccc1` (centres undefined) | 5.806% |
| `CCCNC1CCCc2cccnc21` (centres undefined) | -21.66% |
| `COCc1csc(CN)c1` | 7.143% |
| `COCCNC(=O)CSc1nnc2n1CCCCC2` | 3.855% |
| `CCN1CCN(C(=O)CN2CCCCCCC2=O)CC1` | 12.23% |
| `CC(=O)NC1CCN(C(C)C)CC1` | -2.835% |
| `CNC(=O)c1cc(OC2CCNC2)ccn1` (centres undefined) | 31.86% |
| `N[C@H]1CC[C@@H](C(F)(F)F)C1` | 13.88% |
| `CN(CCC(=O)Nc1ccccc1)CC(=O)N(C)C` | 0.8091% |
| `NCc1cc(F)c(N2CCOCC2)c(F)c1` | -11.26% |
| `c1cncc(NCc2ccsc2)c1` | 30.7% |
| `CC(CN)N(C)C(=O)Cc1cccc2ccccc12` (centres undefined) | 34.98% |
| `NC(=O)NC(=O)CCS(=O)(=O)c1cc(F)ccc1F` | 103.6% |
| `CC(C)n1nccc1NC(=O)N1CCCSCC1` | 3.848% |
| `CCOCCC1(CN)CCC1` | 0.6584% |
| `N#CC1(NC(=O)CN2CCC(CO)CC2)CCCCC1` | 12.38% |
| `NC(=O)C(c1ccc(Cl)cc1)N1CCNCC1` (centres undefined) | -5.591% |
| `CCC(C)NC(=O)CNC(=O)Cn1cncn1` (centres undefined) | -6.808% |
| `Cc1cc(=O)[nH]c(C(C)(C)N)n1` | 2.392% |
| `CC(C)(C)NC(=O)CNC(=O)c1cccc2cn[nH]c12` | -3.464% |
| `COC(=O)c1ccc(CN(C)CCN2CCCC2=O)o1` | 11.95% |
| `NCCC(=O)N1CCOc2ccccc2C1` | 10.98% |
| `N[C@@H]1CCOc2c(F)ccc(F)c21` | 29.09% |
| `NC(=O)CSCC(=O)Nc1ccc(Cl)c(F)c1` | 31.11% |

Some entries from above, unchanged:

- CS(=O)(=O)N1CCC(NC(=O)c2cccc(Cl)c2)CC1 | 12.79%
- COCc1csc(CN)c1 | 7.143%
- CCN1CCN(C(=O)CN2CCCCCCC2=O)CC1 | 12.23%
- CC(C)(C)OC(=O)c1ncccc1N | 45.53%